From US9371322B2, “Bicyclic aza-amides for treatment of psychiatric disorders” (MAX-PLANCK-GESELLSCHAFT ZUR FÖRDERUNG DER WISSENSCHAFTEN …, priority 2012, dated 2016) come the findings set out here.

By UniProt entry, the sequences of proteins in these tests, tags left out. Residues count along the entry.
UniProt P62942, whole entry: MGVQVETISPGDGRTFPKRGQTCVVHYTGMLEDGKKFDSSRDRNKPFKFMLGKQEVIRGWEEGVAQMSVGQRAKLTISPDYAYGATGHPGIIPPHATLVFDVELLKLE
UniProt Q02790, 50-138 limits assumed: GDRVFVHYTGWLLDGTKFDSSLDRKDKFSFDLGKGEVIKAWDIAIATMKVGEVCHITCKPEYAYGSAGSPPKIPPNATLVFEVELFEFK
UniProt Q13451, 42-130 limits assumed: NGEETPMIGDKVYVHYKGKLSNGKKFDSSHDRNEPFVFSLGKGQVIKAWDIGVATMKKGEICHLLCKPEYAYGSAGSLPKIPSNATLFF

Structures are written as SMILES. Structures were worked out from names or drawings and are uncertain. A value given as a limit tells only on which side of the number the result lay.

In assay [1] the target is FKBP12 (Homo sapiens, UniProt P62942). Briefly: Competitive fluorescence polarization assay, binding to FKBP12. (In general: Polarisation of emitted light reports the rotation of a fluorescent probe.)
The target in assay [2] is FKBP52 (Homo sapiens, UniProt Q02790). Put plainly: Competitive fluorescence polarization assay, binding to FKBP52. The following applies: read-out: FKBP52 Ki, FKBP52FK1, fluorescent tracer 20 nM final, 30 min room temperature.
The target in assay [3] is FKBP51 (Homo sapiens, UniProt Q13451). Put plainly: Competitive fluorescence polarization assay, binding to FKBP51. The note with it: read-out: FKBP51 Ki, FKBP51FK1, fluorescent tracer 20 nM final, 30 min room temperature.

For the molecule `CCC(C)(C)C(=O)C(=O)N1CCCC[C@H]1C(=O)OCCOc1ccc(OC)c(OC)c1`, in assay [1] (LE=(ΔG)/N, ΔG=−RTlnKi, RT=0.6, N non-hydrogen atoms), the “FKBP12 ligand efficiency (LE)” value was 0.27. In addition, the Ki (as a rule, the equilibrium dissociation constant of an inhibitor or competing ligand from its target) in assay [1] (read-out: FKBP12 Ki, fluorescence polarization, fluorescent tracer 20 nM final, 30 min room temperature) is 0.9 µM; in assay [2], above 100 µM; in assay [3], above 100 µM.
